Data on two molecules can be found in paper PMC10753161.

These are yes or no findings as the source states them, for the method shown. Binding calls can cover weak binding; strength is not graded here. For some assays here: Where a sequence is shown, tags or fusion partners need not be part of it. For some assays here: In cells and extracts the contact can be indirect.

For test [1], the target named is T1, BD-StSN2 (potato (Solanum tuberosum)) (UniProt Q93X17).
T1 sequence: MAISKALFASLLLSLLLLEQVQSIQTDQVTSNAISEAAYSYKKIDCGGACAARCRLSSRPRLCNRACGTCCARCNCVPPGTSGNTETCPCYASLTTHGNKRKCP
Briefly: two-hybrid; pGBKT7 (BD) and pGADT7 (AD) fusions in AH109 yeast; growth on SD-Trp/Leu/His/Ade (quadruple dropout) in a dilution series.

The target of test [2] is StBIN2 (endogenous, potato tuber) (potato (endogenous in tuber budding eyes)). Briefly: co-IP; total protein from budding eyes of potato tubers; anti-StBIN2 antibody and protein A magnetic beads, 6-8 h at 4°C, washed with 1x PBS; StSN2 detected by blot.

Take “AD-StBIN2 (potato (Solanum tuberosum)) (enzyme)”: in test [1], the binding entry is listed as “binds”.

B1: StSN2 (endogenous, potato tuber) (protein, UniProt Q93X17 39-104)
chain: YSYKKIDCGGACAARCRLSSRPRLCNRACGTCCARCNCVPPGTSGNTETCPCYASLTTHGNKRKCP
In the case of B1, the binding result in test [2] is “binds”.
